Test results taken from US11938208B2, “Antimicrobial mixture” (SYMRISE AG, priority 2019, dated 2024).
At least one structure is not confirmed: it was looked up by name or label, or the drawing left a doubt.

Tested on: E.coli (ATCC #8739)
Assay: Preservative efficacy test (challenge test) in an anionic emulsion of pH 5.8
Assay type: cell-based
Details: day 14 after inoculation; storage 22.5±2.5° C.; TNTC = too numerous to count; listed as 0.35% SymSave H
Description: This test is a reference method that is used to evaluate the preservative efficacy of a test formulation (in the present case an anionic emulsion of pH 5.8 comprising various fatty esters and fatty alcohols as oil bodies and glyceryl stearate citrate as the emulsifier. The formula was inoculated with known populations of microorganisms (0.2 ml of calibrated inoculums into 20 g of the test formulation) and the number of surviving microorganisms was calculated at defined intervals during a 28-day period. The inoculated test products were stored at 22.5±2.5° C. for the 28-day duration. The surviving microorganisms were enumerated via the total aerobic plate count method. For each time point, the log 10 reductions were calculated and were compared to the passing criteria.

CC(=O)c1ccc(O)cc1 [0.25% SymSave H, 4-hydroxyacetophenone]
surviving microorganisms (total aerobic plate count), day 14: 1.8 × 104
